Test results from ChEMBL document CHEMBL4513140, “CO-ADD screening of Lancaster University (UK) compounds” (2021).
The other results are listed elsewhere or left out. Measured potencies and affinities stand elsewhere.

The compounds below were run on Acinetobacter baumannii. Details: Concentration 32 ug.mL-1; ASSAY_TEST Inhibition of Bacterial Growth; detection method Absorption (OD600); MEDIA CAMHB; plate type 384well; NBS; CORNING #3640; time 18 hr.
COC(=O)c1ccc(S)cc1 was tested, and the Inhibition was 2.25%.
c1ccc2nc3c4cccnc4c4ncccc4c3nc2c1 showed an Inhibition of 14.38%.
Compound CC(=O)c1cc(C(C)=O)cc(C(C)=O)c1 has an Inhibition of 3.33%.
CC(=NN)c1cc(/C(C)=N/N)cc(/C(C)=N/N)c1 showed an Inhibition of -2.44%.
